From ChEMBL document CHEMBL3988442, “University of Dundee, Small-Polar-MMV Screening Library” (2021).

By UniProt entry, the sequences of proteins in these tests, tags left out. Residues count along the entry.
UniProt P9WFT3, whole entry: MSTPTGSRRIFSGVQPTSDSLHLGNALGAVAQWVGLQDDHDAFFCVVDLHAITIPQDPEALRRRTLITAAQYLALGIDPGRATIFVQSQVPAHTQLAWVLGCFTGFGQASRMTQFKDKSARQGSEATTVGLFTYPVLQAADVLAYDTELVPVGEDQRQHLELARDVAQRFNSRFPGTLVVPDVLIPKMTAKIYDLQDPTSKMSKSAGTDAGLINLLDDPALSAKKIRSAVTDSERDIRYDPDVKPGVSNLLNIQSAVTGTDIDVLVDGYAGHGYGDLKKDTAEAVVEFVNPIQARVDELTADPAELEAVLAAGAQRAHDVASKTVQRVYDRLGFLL
UniProt I6X8D2, whole entry: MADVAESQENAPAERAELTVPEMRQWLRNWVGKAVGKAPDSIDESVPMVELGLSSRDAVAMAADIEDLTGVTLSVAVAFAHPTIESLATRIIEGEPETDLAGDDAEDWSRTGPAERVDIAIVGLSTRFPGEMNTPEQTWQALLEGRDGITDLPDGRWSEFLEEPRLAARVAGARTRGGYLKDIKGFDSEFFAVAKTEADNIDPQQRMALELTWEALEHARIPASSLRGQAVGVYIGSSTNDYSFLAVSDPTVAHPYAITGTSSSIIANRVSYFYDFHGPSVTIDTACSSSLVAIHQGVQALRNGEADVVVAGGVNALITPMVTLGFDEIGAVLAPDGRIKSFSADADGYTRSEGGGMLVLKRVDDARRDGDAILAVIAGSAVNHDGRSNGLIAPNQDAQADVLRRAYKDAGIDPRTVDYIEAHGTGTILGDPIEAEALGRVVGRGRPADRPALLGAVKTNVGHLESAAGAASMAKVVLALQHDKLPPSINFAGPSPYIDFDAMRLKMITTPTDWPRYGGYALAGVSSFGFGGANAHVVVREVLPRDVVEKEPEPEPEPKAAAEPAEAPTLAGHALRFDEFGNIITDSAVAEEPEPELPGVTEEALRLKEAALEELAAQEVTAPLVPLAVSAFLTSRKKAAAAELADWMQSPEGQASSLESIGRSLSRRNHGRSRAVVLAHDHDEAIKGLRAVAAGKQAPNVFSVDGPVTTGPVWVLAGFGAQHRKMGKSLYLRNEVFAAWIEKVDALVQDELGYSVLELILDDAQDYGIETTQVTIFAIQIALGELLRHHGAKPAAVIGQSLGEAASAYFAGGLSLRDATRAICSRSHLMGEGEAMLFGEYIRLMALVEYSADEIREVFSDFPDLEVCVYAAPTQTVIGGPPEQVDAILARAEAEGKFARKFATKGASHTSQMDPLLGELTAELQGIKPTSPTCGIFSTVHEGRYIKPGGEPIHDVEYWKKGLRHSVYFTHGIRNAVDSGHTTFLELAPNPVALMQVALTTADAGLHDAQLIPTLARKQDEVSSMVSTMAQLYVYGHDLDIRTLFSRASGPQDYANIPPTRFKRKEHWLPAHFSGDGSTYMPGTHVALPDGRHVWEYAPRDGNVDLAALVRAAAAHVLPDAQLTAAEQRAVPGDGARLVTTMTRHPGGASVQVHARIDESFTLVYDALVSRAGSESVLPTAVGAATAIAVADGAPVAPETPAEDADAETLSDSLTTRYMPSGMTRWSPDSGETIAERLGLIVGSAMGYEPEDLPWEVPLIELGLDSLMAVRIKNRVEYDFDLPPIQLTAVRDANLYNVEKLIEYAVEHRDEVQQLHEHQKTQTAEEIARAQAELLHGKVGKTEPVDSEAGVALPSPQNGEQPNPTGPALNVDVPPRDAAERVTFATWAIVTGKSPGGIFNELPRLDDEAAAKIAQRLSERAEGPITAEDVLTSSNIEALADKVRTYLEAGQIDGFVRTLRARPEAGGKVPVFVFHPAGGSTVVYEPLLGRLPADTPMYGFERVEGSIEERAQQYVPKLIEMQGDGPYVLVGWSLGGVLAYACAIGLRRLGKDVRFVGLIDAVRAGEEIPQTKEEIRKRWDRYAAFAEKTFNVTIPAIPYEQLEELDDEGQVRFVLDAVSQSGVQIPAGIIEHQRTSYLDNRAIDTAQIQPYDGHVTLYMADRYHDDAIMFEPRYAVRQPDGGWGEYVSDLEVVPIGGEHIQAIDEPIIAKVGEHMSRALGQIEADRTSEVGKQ
UniProt Q4DA54, 1-478: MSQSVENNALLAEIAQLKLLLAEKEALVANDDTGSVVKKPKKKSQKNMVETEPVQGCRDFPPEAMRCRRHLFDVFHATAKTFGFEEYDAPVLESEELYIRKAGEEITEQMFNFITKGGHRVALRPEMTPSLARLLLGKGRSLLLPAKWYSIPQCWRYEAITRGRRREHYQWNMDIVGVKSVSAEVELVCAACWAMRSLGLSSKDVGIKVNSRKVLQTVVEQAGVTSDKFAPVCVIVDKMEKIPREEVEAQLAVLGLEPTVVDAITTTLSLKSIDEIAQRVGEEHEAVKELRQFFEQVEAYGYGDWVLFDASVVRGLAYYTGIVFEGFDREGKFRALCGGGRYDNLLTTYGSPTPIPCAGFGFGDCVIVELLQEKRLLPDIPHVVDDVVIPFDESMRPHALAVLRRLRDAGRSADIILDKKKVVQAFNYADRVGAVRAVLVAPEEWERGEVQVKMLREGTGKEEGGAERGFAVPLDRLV

A: 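Tryptophan-tRNA ligase, Mycobacterium tuberculosis (UniProt P9WFT3). Enzyme assay of tryptophanyl-tRNA synthetase; the read-out is not stated. Tested at 10 µM. Higher most likely means stronger inhibition; the record gives no direction and few retests gave an IC50. Of about 65,000 compounds tested this way, about 64 (0.098%) reached 50% or more in at least one test.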
B: 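Cell assay of Leishmania donovani living inside macrophages; the read-out is not stated. Tested at 30 µM. The record gives no direction; compounds that gave an IC50 in retests scored well above the rest, so higher reads as stronger inhibition. About 69,000 compounds were tested under these conditions; 1.5% (about 1,000) showed 50% or more at least once.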
C: 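Enzyme assay of the thioesterase domain of polyketide synthase 13; the read-out is not stated. Target: Polyketide synthase Pks13, Mycobacterium tuberculosis (UniProt I6X8D2). Compounds at 30 µM. The record gives no direction; the compounds picked for IC50 retests had high values, so higher reads as stronger inhibition. About 67,000 compounds were tested under these conditions; 0.46% (about 300) showed 50% or more at least once.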
D: 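Enzyme assay of histidyl-tRNA synthetase; the read-out is not stated. Target: Histidine-tRNA ligase, Trypanosoma cruzi CL Brener (UniProt Q4DA54). Tested at 30 µM. The record gives no direction; compounds that gave an IC50 in retests scored well above the rest, so higher reads as stronger inhibition. Size under these conditions: about 69,000 compounds, about 31 of them at 50% or above in at least one test.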

Results are given as percent effect.
The controls that fix the scale are not given in the record; negative values are as filed.
This is an unselected part of the compounds tested.
Two or more numbers in one place are separate tests of the same structure; such repeats can differ widely.
A dash means the value is not listed here; it may have been measured.

compound	A	B	C	D
CC1CCN(C(=O)C2CCN(S(C)(=O)=O)CC2)c2ccccc21 (centres undefined)	1.452	4.562	-22.08	7.229
O=C(c1ccoc1)N1CCC(O)(C(F)(F)F)CC1	2.71	3.308	3.276	3.03
O=C(NC[C@H]1Cn2c(-c3ccccc3)cnc2CO1)C1CC1	-2.049	20.15	-29.11	4.348
COCCN1CCC(NCc2ccc(C#N)cc2)C1 (centres undefined)	3.597	12.42	-13.56	-0.7634
CCN(CC)C(CNC(=O)CCc1nc(C(C)C)no1)c1ccco1 (centres undefined)	-4.357	-1.243	-0.2442	0
COc1ccc(CC(=O)N2CC[C@@H]3[C@H](CC2)N(C)CCS3(=O)=O)cc1	-4.503	-	-17.79	3.261
CNc1cc(CNC(=O)c2ccncc2)nc(-c2ccncc2)n1	-	13.89 & 29.57	14.98	7.692
[H][C@@]12CCCC[C@]1(O)CCN(C(=O)OC)[C@H]2c1ccc2c(c1)OCO2	-	6.067	-	-
Cn1cc(CN2CCC(CCC(=O)Nc3ccccc3Cl)CC2)cn1	3.526	20.1	-4.245	2.041
O=C(c1cc2c([nH]c1=O)CCC2)N1CCCC1c1ccccc1 (centres undefined)	-5.853	16.64	-22.27	3.261
Cc1cccnc1CN1CCN(CC(=O)N(C)C)[C@@H]2CS(=O)(=O)C[C@@H]21	-3.866	-	-1.94	7.027
O=C(CSCC1CC1)N1CCC2(CCCN(C3CCOCC3)C2=O)C1 (centres undefined)	2.886	34.88	-3.497	8.04
CCn1nc(C)c2nc(C)nc(NCCc3ccc(C)cc3)c21	0.9167	33.36	-6.862	19.17
CCc1ccc(C(=O)N2CCN(Cc3ccc(F)cc3)CC2)s1	-1.183	-3.959	2.073	7.317
COc1ccc(OC2CCN(c3ccncc3)CC2)cc1	-2.202	45.98	-34.14	8.247
CCN1CCn2c(C)cnc2C12CCN(C(=O)CC(C)C)CC2.O=C(O)C(F)(F)F.O=C(O)C(F)(F)F	-	-17.3	-	-
COc1cccc(CNCc2ccc(F)cc2Cl)c1O	-1.537	50.12	-7.226	6.736
O=C(O)C(F)(F)F.[H][C@@]12C[C@@H](C)O[C@]1([H])CN(S(=O)(=O)c1c(C)nn(C)c1C)C2	-	-1.807	-	-
CN(C)CCNC(=O)Nc1cccc(C[S+]([O-])Cc2ccccc2)c1 (centres undefined)	-1.605	3.444	-7.386	7.143
COc1cccc(CNCc2c(C)nn(C)c2N(C)C)c1	-7.904	24.77	-13.71	7.647
O=C(NC1CC1)N1CCc2ccc(=O)n(Cc3ccncc3)c2CC1	15.72	-4.09 & 2.687	-30.14	-2.151
CCc1cc(C(C)Nc2nc(-c3cccnc3)nc3c2CNC3)on1 (centres undefined)	-3.406	4.322	-16.91	10.39
CC(C(=O)N1CCN(c2ccccc2)CC1)n1cc(Br)cn1 (centres undefined)	-1.684	27.24	-7.397	1.739
O=C1C[C@H]2CC[C@@H](CN1)N2C1CCOCC1	-1.424	-	2.022	0.8
CCOC(=O)CC1CCCCN1C(=O)c1cc(C)on1 (centres undefined)	-0.2901	-3.353	-43.26	-1.63
CCc1n[nH]c(C2CN(C(=O)c3cnn(CC)c3)CCO2)n1 (centres undefined)	16.18	-24.66	-4.104	0.2915
O=C(Nc1ccccn1)c1nc(N2CCCC2)ncc1Cl	-7.669	17.31	-13.63	-2.174
Cn1cncc1CN1C[C@@H]2OCCN(c3ncccn3)[C@@H]2C1	0.9053	-	-16.37	4.926
O=C(O)C(F)(F)F.O=C(O)C(F)(F)F.O=C(O)C(F)(F)F.[H][C@@]12C[C@@H](OCc3cccnc3)CN1CCN(Cc1nccn1C)C2	-	19.67	-	-
Cc1cc(C)n(CC2CCCCN2CC(=O)Nc2cccnc2)n1 (centres undefined)	1.243	14.61	-25.12	-3.734
COc1ccc(C(=O)NCc2cccnc2N2CCOCC2)o1	2.397	16.59	-2.87	0
Cn1ccnc1-c1ccccc1C(=O)N1CCc2c(nc(N)[nH]c2=O)C1	-0.9114	22.46	4.785	5.858
O=C(c1ccc2c(c1)COC2)N1CCC(Nc2ccccc2)CC1	1.039	25.54	-9.143	-0.7634
CN(C)CCOCC1CN(Cc2ccsc2)Cc2ccnn2C1.O=C(O)C(F)(F)F.O=C(O)C(F)(F)F.O=C(O)C(F)(F)F (centres undefined)	-	9.716	-	-
CC(C)CNC(=O)c1ccc2c(c1)nc1n2CCN(Cc2ccco2)C1	2.847	-4.659	-1.845	1.242
CCN1CCN(C2CCN(Cc3nc4ccccc4o3)CC2)C1=O	1.486	23.65	-19.7	-3.396
CN(CC(=O)Nc1ccccc1C(=O)NC1CC1)Cc1ccccc1Cl	8.748	31.64	-17.52	4.444
CCN1CC2(CCN(Cc3nc(CSC)no3)CC2)CC1=O	3.15	-3.425	-15.66	2.976
CCC(=O)N1CCc2[nH]cnc2C12CCN(C1CCOCC1)CC2	-5.056	17.73	-17.93	2.703
Cc1cc(C)n(CCC(=O)N2CCCC(c3nc(C(C)C)no3)C2)n1 (centres undefined)	0.3886	-4.292	-6.46	-0.8696
Cc1ccccc1N1CCCN(C(=O)CCCn2ccnc2C)CC1	0.06915	25.13	-9.962	9.639
CC(C)NCc1nc(-c2ccc3c(c2)OCO3)c[nH]1	-0.3812	-	-	12.07
COCc1ncn2c1CN(C(=O)c1cccc3cccnc13)CC2.O=C(O)C(F)(F)F	-	-7.814	-	-
CCn1c(C)nnc1Sc1nn2cc(C)nc2s1	0.7766	-3.182	-35.39	6.466
CNC(=O)[C@@H](CC(C)C)N1CCC[C@H]1C(=O)N(C)Cc1ccccc1	-0.6777	-	-24.49	9.901
Cc1cc(CNc2ccc3nc(C)sc3c2)no1	-6.507	2.878	-7.934	10.99
Cc1n[nH]c(C)c1-c1cnc(C2CCN(S(C)(=O)=O)CC2)cn1	-	20.65	-	1.498
Cc1ncsc1C(=O)NCCOc1ncc(Cl)cc1Cl	3.94	49.53	-10.82	4.813
Cn1cncc1CN1CCCC1c1cncc(Oc2ccc(F)cc2)n1 (centres undefined)	3.922	23.83	-10.96	6.084
Fc1cccc2[nH]c(CN3CCc4cncnc4C3)nc12	-5.636	27.86	-17.89	18.71
Cc1nnc(SCCCNC(=O)Cc2ccc3c(c2)OCO3)s1	-7.158	-19.8	4.49	0.5952
Cc1cnc(C(=O)N2CCc3ncnc(-c4cnn(C)c4)c3CC2)cn1	-6.806	9.93	-21.31	6.542
O=C(O)C(F)(F)F.O=C(c1ccccn1)N1CCC2(CC1)COC(COCC1CC1)C2 (centres undefined)	-	32.11	-	-
OC(CN1CCC(c2ccn[nH]2)CC1)c1ccc(F)cc1 (centres undefined)	22.23	8.516	-20.97	0.5814
O=C(NC1CC1)c1cn(C2CCN(c3cc(C4CC4)ncn3)CC2)nn1	7.53	-4.013	-35.89	-7.143
COC(=O)c1ccc(CNC(=O)Cc2csc(C(C)=O)c2)cc1	0.486	-1.577	7.729	3.061
COc1cccc(NC(=O)NCC(O)c2ccc(F)cc2F)c1 (centres undefined)	3.644	7.78	-	2.006
Cc1ncsc1CN1CC[C@H]2OCC[C@@]2(C(=O)N2CCOCC2)C1	-4.701	-	-30.08	1.075
O=C1CCCN1CCCC(=O)N1CCCCC1c1ccc(F)cc1 (centres undefined)	4.106	-17.46	-7.414	10.24
CCN1CCC2(CC1)CN(CCO)c1ccccc12	2.481	1.902	15.83	1.266
COc1ccc(Cl)cc1CCNC(=O)N(C)CC1CCOC1 (centres undefined)	-0.09633	19.18	-38.48	2.674
CCn1c(C2CCN(C(=O)c3ccc4cc[nH]c4c3)CC2)n[nH]c1=O	-2.542	10.99	-5.239	5.455
Cc1cc(N2CCC(Cc3ccncc3)C2)ncn1 (centres undefined)	-9.715	18.59	2.082	12.31
COc1ccccc1OCC(=O)N1CCN(Cc2noc(C)n2)CC1	-1.174	-6.756	-21.63	-2.542
O=C(Cn1nc(C(F)(F)F)c(Br)c1C1CC1)N1CCOCC1	-0.9709	-20.73	-1.53	6.931
Cc1nncn1CCNC(=O)C1SCCc2sccc21 (centres undefined)	-1.65	16.33	-13.81	6.863

Some entries from above, unchanged:

| compound | A | B | C | D |
|---|---|---|---|---|
| `COc1ccc(OC2CCN(c3ccncc3)CC2)cc1` | -2.202 | 45.98 | -34.14 | 8.247 |
| `CCN1CC2(CCN(Cc3nc(CSC)no3)CC2)CC1=O` | 3.15 | -3.425 | -15.66 | 2.976 |
| `O=C(Cn1nc(C(F)(F)F)c(Br)c1C1CC1)N1CCOCC1` | -0.9709 | -20.73 | -1.53 | 6.931 |
| `COc1ccc(C(=O)NCc2cccnc2N2CCOCC2)o1` | 2.397 | 16.59 | -2.87 | 0 |